PubChem BioAssay AID1259308 – NCATS | 2017
Screen: 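Knock-downs that increase output of a recombinant reporter protein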 (primary screen). Cell system: human HEK293 embryonic kidney cells stably expressing firefly luciferase (HEK-CMV-Luc2-Hygro). Reagents: single siRNA against human genes, 0.8 pmol siRNA per well. Time to read-out: 72 h. Detection: 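Luciferase light (ONE-Glo) measured on one replicate plate set and viability (CellTiter-Glo) on the other, scaled to a negative control siRNA, with robust z-scores and luciferase per cell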. Direction: total luciferase, z-score and total luciferase, % of control: higher = more reporter protein produced. Active means: 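An siRNA counts as active if its total luciferase robust z-score exceeds 3; genes with two or more such siRNAs out of three were retested with fresh siRNAs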. Calls: active = raised luciferase; inactive = no rise.
The deposit covers about 59,000 reagents; this is a part drawn at random. Over the whole deposit, about 1,510 (2.6%) got an active call. 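Calls use total luciferase alone and ignore viability, so some active siRNAs may act by altering cell number.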 Not all columns of the deposit are shown. Reagent sequences are not shown.

gene	PubChem SID	total luciferase, z-score	total luciferase, % of control	call
MT1X	SID160733451	-0.571	70.5	inactive
MT1X	SID160777511	2.01	122	inactive
MT1X	SID160777512	0.666	95.1	inactive
SPINT2	SID160728964	0.588	93.6	inactive
SPINT2	SID160728966	-0.715	67.7	inactive
SPINT2	SID160728967	0.825	98.3	inactive
RPL23AP82	SID160763449	-1.98	42.5	inactive
RPL23AP82	SID160763450	-0.897	64	inactive
RPL23AP82	SID160763451	2.01	122	inactive
HMGB1P40	SID160769579	-0.886	64.3	inactive
HMGB1P40	SID160769580	-1	61.9	inactive
HMGB1P40	SID160769581	0.279	87.4	inactive
USP43	SID160756224	-0.543	71.1	inactive
USP43	SID160756225	1.73	116	inactive
USP43	SID160756226	0.952	101	inactive
E2F6	SID160730733	0.906	99.9	inactive
E2F6	SID160757691	4.59	173	active
E2F6	SID160757702	1.26	107	inactive
TMEM207	SID160757114	0.375	89.3	inactive
TMEM207	SID160757115	0.885	99.5	inactive
TMEM207	SID160757116	-0.716	67.6	inactive
AFTPH	SID160742216	-0.215	77.6	inactive
AFTPH	SID160742217	-1.77	46.7	inactive
AFTPH	SID160742218	-1.51	51.9	inactive
